The assay deals with SNCG expressed in cells (MCF7-SNCG, T47D, or COS7 transfected with pCI-SNCG) (UniProt O76070). The assay is described as follows: co-IP with anti-SNCG antibody from transfected COS7 cells, western blot.

By UniProt entry, the sequences of proteins in these tests, tags left out. Where a name states a change or a piece, a line headed by the entry shows the natural chain unless it says otherwise.
UniProt O76070: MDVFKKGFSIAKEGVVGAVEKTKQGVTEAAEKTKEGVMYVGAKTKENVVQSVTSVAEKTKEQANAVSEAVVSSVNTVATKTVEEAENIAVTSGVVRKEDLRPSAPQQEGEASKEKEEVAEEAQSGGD
UniProt O60566: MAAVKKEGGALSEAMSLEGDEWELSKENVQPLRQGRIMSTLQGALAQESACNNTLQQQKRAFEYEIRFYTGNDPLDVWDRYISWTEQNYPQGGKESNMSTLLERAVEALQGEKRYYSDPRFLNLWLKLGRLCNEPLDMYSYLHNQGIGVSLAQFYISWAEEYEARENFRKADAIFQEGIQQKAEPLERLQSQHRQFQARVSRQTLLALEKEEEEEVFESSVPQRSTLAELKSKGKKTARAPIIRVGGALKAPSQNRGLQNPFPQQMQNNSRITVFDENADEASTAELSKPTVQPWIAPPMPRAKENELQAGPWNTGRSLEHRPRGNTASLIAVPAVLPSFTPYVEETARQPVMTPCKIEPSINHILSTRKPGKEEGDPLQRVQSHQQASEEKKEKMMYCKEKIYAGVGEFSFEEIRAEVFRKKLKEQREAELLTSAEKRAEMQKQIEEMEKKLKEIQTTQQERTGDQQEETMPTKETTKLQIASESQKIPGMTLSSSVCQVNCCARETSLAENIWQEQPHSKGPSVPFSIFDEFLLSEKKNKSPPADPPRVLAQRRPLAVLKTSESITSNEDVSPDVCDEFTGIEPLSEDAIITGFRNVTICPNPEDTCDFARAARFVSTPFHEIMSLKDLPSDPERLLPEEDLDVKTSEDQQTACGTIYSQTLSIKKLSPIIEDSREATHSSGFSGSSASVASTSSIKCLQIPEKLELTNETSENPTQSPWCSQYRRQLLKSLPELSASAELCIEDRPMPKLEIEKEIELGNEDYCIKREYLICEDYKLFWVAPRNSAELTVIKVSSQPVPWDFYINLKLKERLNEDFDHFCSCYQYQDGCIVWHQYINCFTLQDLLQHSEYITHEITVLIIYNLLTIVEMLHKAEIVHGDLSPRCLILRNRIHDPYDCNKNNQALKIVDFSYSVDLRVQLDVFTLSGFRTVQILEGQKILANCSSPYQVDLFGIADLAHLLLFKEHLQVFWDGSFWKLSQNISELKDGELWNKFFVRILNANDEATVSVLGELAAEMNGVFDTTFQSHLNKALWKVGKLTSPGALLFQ

No constants are given. Whether binding was seen depends on the method and setting. In cells and extracts the contact can be indirect. Some binding calls cover weakened binding; strength is not graded here.

Regarding “myc-tagged BubR1 (from UniProt O60566 1-1050) (enzyme)”, the binding result is on record as “binds”.
